Assay results reported in PubChem BioAssay AID2685 (National Center for Advancing Translational Sciences (NCATS), 2010).
Some of the results follow. Further columns of the screen follow, without active or inactive calls. Compounds called inactive in the main read-out are mostly missing here. The note in brackets gives the kind of curve behind each potency; many fits are weak.

Assay: qHTS Assay for Lipid Storage Modulators in Drosophila S3 Cells;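 as to cell number change: cells counted by Cell Tracker Red CMTPX staining in the red channel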
Conditions: BODIPY lipid droplet fluorescence, 18-24 h; for cell number change: measured here: cell count max response, cells fed with added oleic acid
Method in brief: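 Drosophila S3 cells got compounds at several concentrations plus oleic acid (400 uM solution). Laser-scanning cytometry with 488 nm excitation read lipid droplets at 500-530 nm and cells at 575-640 nm. Percent activity was relative to 20 uM Triacsin C.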

[1] = measured here: lipid fluorescence (Fed channel) AC50, cells fed with added oleic acid
[2] = measured here: cell number channel AC50, cells fed with added oleic acid

SMILES | cell number change [%] | AC50 [1] | AC50 [2]
COc1ccccc1NC(=O)COc1ccc(/C=N/NC(=O)CSCc2cc(C)cc(C)c2)cc1 | 6.35 | 2.31 µM [rising, partial curve] | 
COc1cc(C(=O)N=c2sc3c(C)ccc(OC)c3n2C)cc(OC)c1OC | 24.3 | 0.00461 µM [rising, full curve, poor fit] | 
COc1ccc(C(=O)N2CCN(c3ccc(NC(=O)c4cccnc4)cc3)CC2)cc1 | -37.6 | 29.1 µM [falling, single point] | 29.1 µM [falling, single point]
NC1=C(O)C(=O)C(c2ccccc2)O1 (configuration not stated) | 5.56 |  | 1.64 µM [rising, partial curve, poor fit]
COc1ccc(Cl)c(Cn2c(NCC(C)O)nc3c2c(=O)n(C)c(=O)n3C)c1 (configuration not stated) | -20.2 |  | 
CCOC(=O)[C@@H]1[C@H]2COc3ccc(Br)cc3[C@@H]2N2C(=O)N(c3ccc(F)cc3)C(=O)[C@]12C | 30.2 | 29.1 µM [rising, single point] | 29.1 µM [rising, partial curve, poor fit]
CCN(CC)C(=O)Cn1cc(S(=O)(=O)CC(=O)Nc2ccc(F)cc2F)c2ccccc21 | -3.24 |  | 
CC(C)(C)C(=O)NCCN1C(=O)S/C(=C\c2ccc([N+](=O)[O-])cc2)C1=O |  | 4.61 µM [falling, single point] | 
COc1ccc(NC(=O)C2CCN(S(=O)(=O)c3cn(C)nc3C)CC2)cc1 | 6.65 | 29.1 µM [rising, single point] | 
Cc1cccc(CCN(C(=O)c2snc(C(N)=O)c2N)C(C(=O)NCC2CCCO2)c2ccc(F)cc2)c1 (configuration not stated) | -13.7 | 2.91 µM [falling, single point] | 
O=C(NCCO)c1ccc(CSc2nc3ccccc3[nH]2)cc1 | 63.4 |  | 0.92 µM [rising, full curve]
CCCOC(=O)Cn1cnc2scc(-c3ccc(C)cc3)c2c1=O | -1.92 | 29.1 µM [falling, single point] | 
COc1ccc(N(CC(O)CN2C(=O)NC(C)(C)C2=O)S(=O)(=O)c2ccc(C)cc2)cc1 (configuration not stated) | 35.5 | 5.8 µM [falling, partial curve] | 
CC1=CC(C)(C)NC(=S)N1c1cccc(C)c1 | -12.6 |  | 0.00461 µM [falling, full curve, poor fit]
Cc1nn(CCC#N)c(C)c1Oc1ccccc1O | -18.8 | 4.11 µM [falling, full curve] | 
CN1C(=O)/C(=C2\SC(=S)N(CC3CCCO3)C2=O)c2ccccc21 (configuration not stated) | 7.96 |  | 
CC1C/C(=N\Nc2ccc(S(N)(=O)=O)cc2[N+](=O)[O-])CC(C)(C)C1 (configuration not stated) | -59.7 | 29.1 µM [falling, single point] | 25.9 µM [falling, partial curve]
CN(C1CCCCC1)S(=O)(=O)c1cccc(C(=O)Nc2ccccn2)c1 | -2.04 | 2.06 µM [falling, partial curve] | 
CC(C)=CC(=O)OCc1csc(CC(=O)Nc2ccccc2C)n1 | 29 | 0.0731 µM [rising, full curve, poor fit] | 4.11 µM [rising, full curve, poor fit]

SMILES | cell number change [%] | AC50 [1] | AC50 [2]
O=C(Nc1ncn[nH]1)c1cc([N+](=O)[O-])ccc1Cl | 2.55 |  | 
CCOc1ccc(Nc2nc(N3CCOCC3)nc(N3CCOCC3)n2)cc1 |  | 6.51 µM [rising, full curve] | 
CCOc1cc(Cl)c(S(=O)(=O)NCCCN2CCOCC2)cc1Cl | 6.52 | 29.1 µM [rising, single point] | 
NS(=O)(=O)c1ccc(CCNC(=O)Cc2ccccc2[N+](=O)[O-])cc1 |  |  | 0.146 µM [falling, full curve, poor fit]
OCC[C@@H]1C[C@H](O)[C@@H](O)[C@]2(Cc3ccccc3CCO2)O1 | 21.3 | 11.6 µM [rising, partial curve] | 
CCC(C)Sc1nnc(-c2c[nH]c3ccccc23)n1CCOC (configuration not stated) | -13.9 | 8.2 µM [falling, partial curve] | 
COc1ccc(C2CC(c3ccccc3)Nc3nc(NS(C)(=O)=O)nn32)cc1 (configuration not stated) | -21.5 | 23.1 µM [falling, single point] | 
CCOC(=O)COn1c(=O)c(-c2ccc(OCC)cc2)[n+]([O-])c2ccccc21 | 20.2 | 5.17 µM [rising, partial curve] | 
Cc1ccc(C(=O)/C=C/Nc2ccccc2C(N)=O)o1 | 102 | 20.6 µM [rising, partial curve] | 29.1 µM [rising, single point]
Cc1ccc(C(=O)n2c(-c3ccccc3)cnc2SCC(=O)Nc2ccc(C)cc2C)cc1 |  | 1.84 µM [rising, single point] | 
CC(C)Oc1ccccc1/C=N/NC(=O)c1ccc(F)cc1 | 35.4 | 11.6 µM [rising, single point] | 6.51 µM [rising, single point]
O=C(Nc1ccc(F)c(F)c1)c1ccccc1 | 14.5 | 25.9 µM [falling, single point] | 
O=C(Nc1nc(-c2cccs2)c(C(=O)C(F)(F)F)s1)c1ccco1 | -17.8 | 0.731 µM [falling, full curve] | 0.651 µM [falling, single point]
COc1ccc(CCNC(=O)CSc2n[nH]c(N)n2)cc1 | 7.89 |  | 
O=Cc1c(Cl)nc2ccccn2c1=O | 18.4 | 29.1 µM [rising, single point] | 6.51 µM [rising, single point]
COc1ccccc1NC(=O)CCC(=O)Nc1nnc(C2CCCCC2)s1 | -14.7 |  | 
COc1ccc(NC(=O)CCCc2ccccc2)c(OC)c1 | 26.7 | 29.1 µM [rising, single point] | 
O=C(CCSCc1ccc(Cl)cc1)NCCC1=CCCCC1 | 15.1 |  | 
COc1cc(C2C(C#N)=C(N)OC3=C2C(=O)CC(C)(C)C3)c([N+](=O)[O-])cc1OC (configuration not stated) |  | 29.1 µM [falling, single point] | 

Among those listed so far, two contain a furan ring, fused or not:
SMILES | cell number change [%] | AC50 [1] | AC50 [2]
Cc1ccc(C(=O)/C=C/Nc2ccccc2C(N)=O)o1 | 102 | 20.6 µM [rising, partial curve] | 29.1 µM [rising, single point]
O=C(Nc1nc(-c2cccs2)c(C(=O)C(F)(F)F)s1)c1ccco1 | -17.8 | 0.731 µM [falling, full curve] | 0.651 µM [falling, single point]
